Assay results: PubChem BioAssay AID720706 (Broad Institute, 2013)
This is one part of the list. Some results for these compounds are left out of this collection, so the calls shown say nothing about other tests.

assay: reduced GFP signal of wild-type E. coli, primary screen, bacterial rRNA inhibitor project, GFP/RFP fluorescence, OD600, single point (AID 720706); conditions: E. coli WT GFP vs humanized-ribosome RFP mutants, 24 h; OD600 change: measured here: OD600 growth, DMSO median 0, no signal -100; RFP signal change: measured here: RFP humanized mutant strains, DMSO median 0, no signal -100, concentration not given here

Row | SMILES | OD600 change [%] | RFP signal change [%]
1 | CN1[C@@H]2CC[C@H]1CC(OC(=O)C(O)(c1ccccc1)c1ccccc1)C2 (some centres not stated) | 6.47 | 0.26
2 | O=C(NCC1(N2CCCCC2)CCCCC1)c1cc([N+](=O)[O-])ccc1Cl | 2.02 | 4.16
3 | Cc1ccc(C(=O)NCC2(N3CCCCC3)CCCCC2)cc1 | 8.3 | -2.77
4 | CCN(CC)CC(C)C(C)OC(=O)C(O)(c1ccccc1)c1ccccc1 (configuration not stated) | 6.71 | -2.32
5 | COc1cc(SC)ccc1C(=O)NCC1(N(C)C)CCCCC1 | 15.4 | -1.63
6 | Cc1ccccc1C(=O)NCC1(N2CCCCC2)CCCCC1 | -7.96 | 0.97
7 | CN(C)c1ccc(C(=O)NCC2(N(C)C)CCCCC2)cc1 | 14.2 | -3.84
8 | COc1ccc(C(=O)NCC2(N(C)C)CCCCC2)cc1 | 8.11 | -3.68
9 | Cc1cc(C(=O)NCC2(N3CCCCC3)CCCCC2)ccc1[N+](=O)[O-] | 13.1 | -2.5
10 | O=C(NCC1(N2CCCCC2)CCCCC1)c1cccc(Br)c1 | 2.94 | 0.467
11 | C=CCN1CCN(CCOC(=O)C(O)(c2ccccc2)c2ccccc2)CC1 | 13 | 2.3
12 | O=C(NCC1(N2CCCCC2)CCCCC1)c1cc(F)c(F)cc1Cl | -19.9 | -3.39
13 | COc1cc(C(=O)NCC2(N(C)C)CCCCC2)c([N+](=O)[O-])cc1OC | 20.3 | 0.0695
14 | CN(C)C1(CNC(=O)c2ccc(Br)cc2)CCCCC1 | 6.25 | -1.74
15 | O=C(NCC1(N2CCCCC2)CCCCC1)c1cccc(Cl)c1 | 3.77 | 0.61
16 | COc1cccc(C(=O)NCC2(N3CCCCC3)CCCCC2)c1 | 9.38 | 1.02
17 | COc1ccc(Cl)cc1C(=O)NCC1(N(C)C)CCCCC1 | 17.8 | 0.975
18 | CC(C)Oc1ccc(C(=O)NCC2(N(C)C)CCCCC2)cc1 | 18.6 | 1.69
19 | O=C(OCCN1CCCC1)C(O)(c1ccccc1)c1ccccc1 | 7.68 | -0.425
20 | C=C(C)C#CC(O)(C(=O)OC1CCN(C)CC1)c1ccccc1 (configuration not stated) | 11.2 | 2.83
21 | COc1ccc(Br)c(C(=O)NCC2(N3CCCCC3)CCCCC2)c1 | 3.31 | -0.935
